# Data taken from the supplement of paper PMC3682954.
# Several values for one entry are separate records, joined by “and”; a condition that tells them apart may be missing. Equal values may be shown once. Where a name gives a salt, the structure may show the parent alone. ± gives the standard deviation of the averaged measurements. This is one part of the list. Single values are uncertain, as repeats are few or missing.
# Tested on: RAW 264.7
# Assay: HMGB1-induced TNF-alpha production relative to HMGB1-stimulated control; higher = more TNF-alpha secretion (less inhibition)
# Settings: stimulus: HMGB1 5 ug/ml, 18 h
# [1] = compound concentration: 1 ug/ml
smiles,measurement,setting,value
CN1C(=O)CC[C@H]1c1cccnc1 [(-)-Cotinine],HMGB1-induced TNF-alpha production,[1],76.9%
same,HMGB1-induced TNF-alpha production,compound concentration: 3 uM,87.3 ± 14%
CN1C(=O)CC[C@H]1c1cccnc1,HMGB1-induced TNF-alpha production,compound concentration: 3 uM,71.1%
CC[C@@]1(O)C[C@H](O[C@H]2C[C@H](N(C)C)[C@H](O[C@H]3C[C@H](O)[C@H](O[C@H]4CCC(=O)[C@H](C)O4)[C@H](C)O3)[C@H](C)O2)c2c(cc3c(c2O)C(=O)c2c(O)cccc2C3=O)[C@H]1C(=O)OC [Aclarubicin],HMGB1-induced TNF-alpha production,compound concentration: 3 uM,20.4%
Cc1cc2c(C(C)C)c(O)c(O)c(C=Nc3ccc4c(c3)CCN4S(C)(=O)=O)c2c(O)c1-c1c(C)cc2c(C(C)C)c(O)c(O)c(C=Nc3ccc4c(c3)CCN4S(C)(=O)=O)c2c1O,HMGB1-induced TNF-alpha production,[1],71%
CC[C@@H]1C(=O)OC[C@@H]1Cc1cncn1C [Pilocarpine nitrate],HMGB1-induced TNF-alpha production,compound concentration: 3 uM,94 ± 47%
CC[C@@H]1C(=O)OC[C@@H]1Cc1cncn1C,HMGB1-induced TNF-alpha production,compound concentration: 3 uM,97.5% and 105%
CC[C@@H]1C(=O)OC[C@@H]1Cc1cncn1C [Pilocarpine],HMGB1-induced TNF-alpha production,compound concentration: 3 uM,112%
CC[C@@H]1C(=O)OC[C@@H]1Cc1cncn1C [Pilocarpine hydrochloride],HMGB1-induced TNF-alpha production,[1],83.5%
CC[C@@H]1C(=O)OC[C@@H]1Cc1cncn1C [(+)-Pilocarpine hydrochloride],HMGB1-induced TNF-alpha production,compound concentration: 3 uM,107%
"Cc1ccc2oc(=O)c(-c3ccc(Cl)cc3)c(C)c2c1 [3(4'-Chlorophenyl)-4,6-dimethylcoumarin]",HMGB1-induced TNF-alpha production,[1],74.7%
CSC(=N)NCCC[C@H](N)C(=O)O [S-Methyl-L-thiocitrulline acetate],HMGB1-induced TNF-alpha production,compound concentration: 3 uM,115%
CO[C@@H]1[C@@H](O[C@@H]2O[C@H](C)[C@@H](O[C@H]3C[C@@](C)(O)[C@@H](OC(=O)CC(C)C)[C@H](C)O3)[C@H](N(C)C)[C@H]2O)[C@@H](CC=O)C[C@@H](C)[C@@H](O)/C=C/C=C/C[C@@H](C)OC(=O)C[C@H]1OC(C)=O [Josamycin],HMGB1-induced TNF-alpha production,[1],76.1%
same,HMGB1-induced TNF-alpha production,compound concentration: 3 uM,94.4%
O=c1oc2c(O)c(O)cc3c(=O)oc4c(O)c(O)cc1c4c23,HMGB1-induced TNF-alpha production,compound concentration: 3 uM,90.9 ± 15%
O=c1oc2c(O)c(O)cc3c(=O)oc4c(O)c(O)cc1c4c23 [Ellagic acid hydrate],HMGB1-induced TNF-alpha production,[1],85.8%
NC(N)=NC(=O)c1nc(Cl)c(N)nc1N,HMGB1-induced TNF-alpha production,compound concentration: 3 uM,107%
NS(=O)(=O)c1cc2c(cc1Cl)NC(C1CC3C=CC1C3)NS2(=O)=O (stereo not given) [Cyclothiazide],HMGB1-induced TNF-alpha production,compound concentration: 3 uM,82.3%
NS(=O)(=O)c1cc2c(cc1Cl)NC(C1CC3C=CC1C3)NS2(=O)=O (stereo not given),HMGB1-induced TNF-alpha production,compound concentration: 3 uM,85.6%
O=C1NS(=O)(=O)c2ccccc21,HMGB1-induced TNF-alpha production,compound concentration: 3 uM,80.1%
CC(=O)CC(c1ccccc1)c1c(O)c2ccccc2oc1=O (stereo not given) [Warfarin],HMGB1-induced TNF-alpha production,compound concentration: 3 uM,90.2%
CC(=O)CC(c1ccccc1)c1c(O)c2ccccc2oc1=O (stereo not given),HMGB1-induced TNF-alpha production,compound concentration: 3 uM,90.2 ± 8.7%
S=C(S)N1CCCC1 [Ammonium pyrrolidinedithiocarbamate],HMGB1-induced TNF-alpha production,compound concentration: 3 uM,95%
CCN(CC)CC(=O)Nc1c(C)cccc1C [Lidocaïne hydrochloride],HMGB1-induced TNF-alpha production,compound concentration: 3 uM,33.2%
CCN(CC)CC(=O)Nc1c(C)cccc1C [Lidocaine hydrochloride],HMGB1-induced TNF-alpha production,compound concentration: 3 uM,113%
CCN(CC)CC(=O)Nc1c(C)cccc1C,HMGB1-induced TNF-alpha production,compound concentration: 3 uM,88.8% and 112%
CCN(CC)CC(=O)Nc1c(C)cccc1C [Lidocaine],HMGB1-induced TNF-alpha production,compound concentration: 3 uM,103%
CC(=O)OCC(=O)[C@@]12OC(C)(C)O[C@@H]1C[C@H]1[C@@H]3C[C@H](F)C4=CC(=O)C=C[C@]4(C)[C@@]3(F)[C@@H](O)C[C@@]12C [Fluocinonide],HMGB1-induced TNF-alpha production,compound concentration: 3 uM,47.5%
CC(=O)OCC(=O)[C@@]12OC(C)(C)O[C@@H]1C[C@H]1[C@@H]3C[C@H](F)C4=CC(=O)C=C[C@]4(C)[C@@]3(F)[C@@H](O)C[C@@]12C,HMGB1-induced TNF-alpha production,compound concentration: 3 uM,48.1%
c1ccc2c(CC3=NCCN3)cccc2c1 [Naphazoline hydrochloride],HMGB1-induced TNF-alpha production,compound concentration: 3 uM,89.1 ± 40%
c1ccc2c(CC3=NCCN3)cccc2c1,HMGB1-induced TNF-alpha production,compound concentration: 3 uM,90.3%
c1ccc2c(CC3=NCCN3)cccc2c1 [Naphazoline],HMGB1-induced TNF-alpha production,compound concentration: 3 uM,84%
"O=C(O)[C@@H]1C[C@H](C(=O)O)N1 [cis-Azetidine-2,4-dicarboxylic acid]",HMGB1-induced TNF-alpha production,compound concentration: 3 uM,89.2%
"Ic1ccc(N2CCN(Cc3c[nH]c4ncccc34)CC2)cc1 [L-750,667 trihydrochloride]",HMGB1-induced TNF-alpha production,compound concentration: 3 uM,110%
OCc1ccccc1O[C@@H]1O[C@H](CO)[C@@H](O)[C@H](O)[C@H]1O [D(-)-Salicin],HMGB1-induced TNF-alpha production,[1],76%
OCc1ccccc1O[C@@H]1O[C@H](CO)[C@@H](O)[C@H](O)[C@H]1O,HMGB1-induced TNF-alpha production,compound concentration: 3 uM,98.9%
Nc1ncnc2c1nc(Br)n2C1OC2COP(=O)(O)O[C@@H]2C1O (stereo not given in full) [8-Bromo-cAMP sodium],HMGB1-induced TNF-alpha production,compound concentration: 3 uM,59.1%
C=CC1=C(C(=O)O)N2C(=O)[C@@H](NC(=O)/C(=N\O)c3csc(N)n3)[C@H]2SC1 [Cefdinir],HMGB1-induced TNF-alpha production,compound concentration: 3 uM,112%
C=CC1=C(C(=O)O)N2C(=O)[C@@H](NC(=O)/C(=N\O)c3csc(N)n3)[C@H]2SC1,HMGB1-induced TNF-alpha production,compound concentration: 3 uM,101 ± 8.9%
Cc1cn([C@H]2C=C[C@@H](CO)O2)c(=O)[nH]c1=O,HMGB1-induced TNF-alpha production,compound concentration: 3 uM,97.5%
Cc1cn([C@H]2C=C[C@@H](CO)O2)c(=O)[nH]c1=O [Stavudine],HMGB1-induced TNF-alpha production,compound concentration: 3 uM,104%
CC(=O)OC1CCC2(C)C(CCC3(C)C2C(=O)C=C2C4CC(C)(C(=O)N5CC6CC(C5)c5cccc(=O)n5C6)CCC4(C)CCC23C)C1(C)C (stereo not given),HMGB1-induced TNF-alpha production,[1],71.6%
CC(=O)NS(=O)(=O)c1ccc(N)cc1 [Sulfacetamide sodic hydrate],HMGB1-induced TNF-alpha production,compound concentration: 3 uM,76.2%
CC(=O)NS(=O)(=O)c1ccc(N)cc1,HMGB1-induced TNF-alpha production,compound concentration: 3 uM,75.8%
C=C1CC[C@@H]2[C@](C)(CO)[C@H](O)CC[C@@]2(C)[C@@H]1C/C=C1/C(=O)OC[C@H]1O [Andrographolide],HMGB1-induced TNF-alpha production,[1],52.1%

# An excerpt of these results, with bars between the fields.
smiles | measurement | setting | value
O=c1oc2c(O)c(O)cc3c(=O)oc4c(O)c(O)cc1c4c23 | HMGB1-induced TNF-alpha production | compound concentration: 3 uM | 90.9 ± 15%
CCN(CC)CC(=O)Nc1c(C)cccc1C [Lidocaine hydrochloride] | HMGB1-induced TNF-alpha production | compound concentration: 3 uM | 113%
